Assay results as given in patent publication US20220112285A1 (UNIVERSITY OF BIRMINGHAM, published 2022).
No constants are given. Whether binding was seen depends on the method and setting. Some results given as binding are weak or reduced against the parent protein; the word gives no strength.

How the values were obtained:
[1] = target: T1, recombinant monomeric human G6b-B (human, UniProt O95866 18-142, limits assumed); assay: plate binding assay, coated protein, 10 µg/ml antibody, A450 (FIG. 8)
T1 construct: also called G6b-B monomer; monomeric G6b-B
T1 sequence (looked up): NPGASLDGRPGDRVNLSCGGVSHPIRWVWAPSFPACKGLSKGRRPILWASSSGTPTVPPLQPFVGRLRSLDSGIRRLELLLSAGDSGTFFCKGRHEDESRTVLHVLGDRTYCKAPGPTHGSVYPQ

[2] = target: T2, recombinant dimeric human G6b-B (human, UniProt O95866 18-142, limits assumed); assay: as above
T2 construct: also called G6b-B dimer; dimeric G6b-B
T2 sequence (looked up): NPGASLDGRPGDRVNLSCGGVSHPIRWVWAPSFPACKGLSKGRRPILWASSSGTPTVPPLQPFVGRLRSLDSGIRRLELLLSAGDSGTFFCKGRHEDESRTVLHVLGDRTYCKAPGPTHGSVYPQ

[3] = target: T1, recombinant monomeric human G6b-B; assay: plate binding assay (FIG. 8)
[4] = target: T2, recombinant dimeric human G6b-B; assay: plate binding assay (FIG. 8)

binding [1]: binds
binding [2]: binds
binding [3]: binds
binding [4]: binds
B1: anti-G6b mouse monoclonal antibody 17-4 (antibody, mouse IgG1, kappa, V domains shown)
VH: EVQLQQSGAELVKPGASVKLSCTASGFNIKETYIHWVKQRPEQGLEWIGRIDPADVYGRYDPKFQGKATITADTSSNSAYLQVSSLTSEDTAVYYCARSYGSSYGIDYWGQGTSVTVSS
VL: DIQMTQTTSSLSASLGDRVTISCRASQDISNYLNWYQQKPDGTVKLLIYYTSTLHSGVPSRFSGSGSGTDYSLTISNLEQEDVATYFCQQGYTLPWTFGGGTKLEIKR
notes: The entries may include leader peptides, since VH CDR2 residues are numbered 69 and 71; no cleavage site is stated; also called exemplary antibody 17-4; mAb 17-4
